Over roughly 33,000 sequences, “E-score (-0.5 to 0.5)” has its median near -0.0014; the highest 2% begin near 0.25. The list shows a part of the results.
These sequences were tested against T1, Cad1 (UniProt P24813) (assay: PBM E-score (8-mer binding enrichment) (E-score (-0.5 to 0.5)); higher = stronger / more preferred TF binding). Conditions: protein concentration: 100 nM; construct: GST-full length.
T1 sequence: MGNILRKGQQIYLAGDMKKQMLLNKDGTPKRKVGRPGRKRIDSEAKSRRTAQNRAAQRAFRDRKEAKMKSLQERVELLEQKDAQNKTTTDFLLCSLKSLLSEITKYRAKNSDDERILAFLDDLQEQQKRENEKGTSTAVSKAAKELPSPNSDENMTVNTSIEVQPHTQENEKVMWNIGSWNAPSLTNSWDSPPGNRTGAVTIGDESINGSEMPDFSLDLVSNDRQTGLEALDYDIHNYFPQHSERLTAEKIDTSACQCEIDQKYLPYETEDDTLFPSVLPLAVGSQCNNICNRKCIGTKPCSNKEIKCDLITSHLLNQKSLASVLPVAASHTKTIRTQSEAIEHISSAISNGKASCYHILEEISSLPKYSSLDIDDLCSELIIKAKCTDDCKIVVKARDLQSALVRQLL
Outline: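 Using PURExpress in vitro transcription/translation, GST-tagged yeast transcription factors were made in full-length or DNA-binding-domain form. These were applied at about 100-200 nM to double-stranded universal all-10-mer Agilent arrays, and bound protein was detected with fluorescent anti-GST. Scans were normalised with masliner before the Universal PBM Analysis Suite assigned E-scores to ungapped eight-base words pooled with their reverse complements.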

Going from CCGCGCGA to GTTATATA, the “PBM E-score” value falls from 0.295 to 0.232.

Compared with TGTACGAA, ATTATAAT is higher in “PBM E-score” value: 0.0881 for the first, 0.227 for the second.

Going from CTTGTGGC to ACAATCAG, the “PBM E-score” value rises from -0.211 to 0.0284.

Compared with GGGTCTTA, CACGGCAC is higher in “PBM E-score” value: -0.131 for the first, -0.119 for the second.

Going from CACTTAAC to ACCTCCGT, the “PBM E-score” value falls from 0.00927 to -0.164.

Compared with GTACGTTA, CTTATACC is lower in “PBM E-score” value: 0.177 for the first, 0.0668 for the second.

Compared with AGTCTAAA, CCAGAAAC is higher in “PBM E-score” value: -0.166 for the first, -0.0733 for the second.

Compared with ACCAACTC, ACGCCAGT is lower in “PBM E-score” value: -0.122 for the first, -0.226 for the second.

Going from GTTTCGTA to GGGGCCCC, the “PBM E-score” value falls from 0.211 to -0.151.

Compared with CTTCCGAC, CCAAGGCG is higher in “PBM E-score” value: -0.0209 for the first, 0.0157 for the second.

First: ATAAGTAC
Second: ACAGAGGC
The “PBM E-score” value of the first is higher: 0.0334 for the first, -0.0774 for the second.

First: GACACCGC
Second: CCGCAGAC
The “PBM E-score” value of the first is higher: 0.0655 for the first, -0.0466 for the second.

First: CGTTTTTC
Second: ATTAAGGG
The “PBM E-score” value of the first is higher: 0.0438 for the first, -0.271 for the second.

First: AAGGATAT
Second: GAGTCAAC
The “PBM E-score” value of the first is higher: 0.16 for the first, -0.14 for the second.

Going from TGAGTGCA to AAGAAGGA, the “PBM E-score” value falls from 0.0231 to -0.2.

Compared with AATTAGGA, AACACCCG is higher in “PBM E-score” value: 0.0377 for the first, 0.147 for the second.

Compared with AATTTTTA, ACACCGCA is lower in “PBM E-score” value: 0.178 for the first, 0.102 for the second.

First: CCCGCAAG
Second: GCCTGCGA
The “PBM E-score” value of the first is lower: -0.172 for the first, -0.159 for the second.

Going from CGCGGACA to CGTGTTTA, the “PBM E-score” value falls from 0.171 to 0.0059.

First: CGCTTTAC
Second: GCCAAGGA
The “PBM E-score” value of the first is higher: 0.039 for the first, -0.109 for the second.

First: AACGGGGA
Second: GCGGGAGA
The “PBM E-score” value of the first is higher: 0.00344 for the first, -0.248 for the second.

Compared with CTGTTAGC, GCAATTGA is higher in “PBM E-score” value: -0.105 for the first, 0.118 for the second.

Compared with TCATCCAA, AATGAACT is lower in “PBM E-score” value: 0.0958 for the first, -0.00805 for the second.

First: CAGTATAG
Second: AAAGATGA
The “PBM E-score” value of the first is lower: 0.0621 for the first, 0.213 for the second.

First: CACACGGC
Second: ACTAAATC
The “PBM E-score” value of the first is lower: -0.0732 for the first, 0.191 for the second.

First: CGCGCGCC
Second: CAAAACGC
The “PBM E-score” value of the first is higher: 0.254 for the first, 0.0728 for the second.

First: CAATCACC
Second: AAGATGAC
The “PBM E-score” value of the first is lower: -0.062 for the first, 0.162 for the second.

Compared with AGATTGAG, GGAAGTGA is lower in “PBM E-score” value: -0.0136 for the first, -0.0839 for the second.

Compared with AGCCCGCG, ATTTTTTA is higher in “PBM E-score” value: -0.0273 for the first, 0.162 for the second.

Going from AATGTATG to GGGAAACA, the “PBM E-score” value falls from 0.058 to -0.00119.

First: CCGAACGA
Second: CATCCATG
The “PBM E-score” value of the first is higher: 0.158 for the first, -0.0474 for the second.

Compared with GACCGGAA, GATCGCCA is higher in “PBM E-score” value: -0.0251 for the first, -0.00992 for the second.

First: TGTCGGAA
Second: AAAGCGTG
The “PBM E-score” value of the first is lower: -0.0766 for the first, -0.00012 for the second.

Compared with AGGGCGAA, CAAACGAC is higher in “PBM E-score” value: -0.104 for the first, 0.126 for the second.

Compared with CCAGCCCA, CCTGAGGC is higher in “PBM E-score” value: -0.329 for the first, -0.262 for the second.

Compared with GCGTGTCA, GCCCGGGC is lower in “PBM E-score” value: 0.237 for the first, -0.197 for the second.

Compared with ACTCCAGA, CTTGAAAC is higher in “PBM E-score” value: -0.056 for the first, 0.151 for the second.

Compared with CACTCTTA, GACACCTC is lower in “PBM E-score” value: 0.0388 for the first, -0.00441 for the second.

Compared with ATGCGCAC, CTTCGACA is lower in “PBM E-score” value: 0.14 for the first, -0.0705 for the second.

First: AGAACGAT
Second: ACTAGTAG
The “PBM E-score” value of the first is lower: 0.0277 for the first, 0.0854 for the second.

First: ACACTCTA
Second: AGGTCTCA
The “PBM E-score” value of the first is higher: 0.148 for the first, -0.13 for the second.

First: ATCGTACA
Second: AGGAAGAG
The “PBM E-score” value of the first is higher: -0.0599 for the first, -0.213 for the second.

Compared with CATCCTAG, CGGAATAC is higher in “PBM E-score” value: -0.128 for the first, 0.213 for the second.

Compared with GAGAGTGA, AAATGTCA is higher in “PBM E-score” value: -0.0619 for the first, 0.0725 for the second.

Going from ACCCGTCT to ACGGAGAG, the “PBM E-score” value falls from -0.128 to -0.258.

Going from TCCTCACA to TACTAAAA, the “PBM E-score” value rises from -0.115 to 0.0457.

Compared with ATATGGTG, GCTTCCGA is lower in “PBM E-score” value: 0.0677 for the first, -0.0158 for the second.

Compared with CTCTGTAA, ACCCCCAG is lower in “PBM E-score” value: -0.187 for the first, -0.327 for the second.

Going from GTGAATTA to GACCAGTA, the “PBM E-score” value falls from 0.135 to -0.18.

Compared with CCAACTTC, ACAGAGGT is higher in “PBM E-score” value: -0.128 for the first, -0.00228 for the second.

Going from CTTAGAGC to AGCTTCCA, the “PBM E-score” value rises from -0.0659 to 0.00421.

First: ACAGGCCT
Second: CGTAACAC
The “PBM E-score” value of the first is lower: 0.0153 for the first, 0.124 for the second.

Compared with CGTTGAAC, GGGTGGTA is lower in “PBM E-score” value: 0.0334 for the first, -0.115 for the second.

Compared with AGCGATAA, TCTCGCCA is lower in “PBM E-score” value: 0.139 for the first, -0.0892 for the second.

Going from CCACACGC to GACCACGC, the “PBM E-score” value falls from 0.131 to -0.0592.

First: CTGGTAGA
Second: ACCTGGTC
The “PBM E-score” value of the first is higher: 0.011 for the first, -0.0493 for the second.

Compared with CGTGCTAC, CGTTGTTC is higher in “PBM E-score” value: -0.166 for the first, 0.0705 for the second.

Going from CAAGTAAA to CGGGGTAA, the “PBM E-score” value falls from 0.0467 to -0.0162.

Compared with CATTCGGA, CCATCCAA is lower in “PBM E-score” value: 0.154 for the first, -0.123 for the second.

Going from ACAATTTC to ATCTGCCG, the “PBM E-score” value rises from -0.0372 to 0.0115.

Going from CTCGTGAC to ACGACCAA, the “PBM E-score” value falls from 0.0148 to -0.0413.

Going from AAATTTCT to CCTATGCA, the “PBM E-score” value rises from 0.0575 to 0.116.

Compared with CACAGAGG, GGACCTAC is higher in “PBM E-score” value: -0.0509 for the first, -0.0283 for the second.

Going from ACACTTCG to CCTGGCCG, the “PBM E-score” value rises from -0.0366 to 0.0114.

Compared with GCTTGGAA, AGGTAATG is higher in “PBM E-score” value: -0.0509 for the first, 0.093 for the second.

Compared with AATTTAAA, CAACGGTC is lower in “PBM E-score” value: 0.126 for the first, -0.0798 for the second.

Going from AGAGGCGA to ACACGTAC, the “PBM E-score” value rises from -0.178 to -0.0184.

First: GAGCAATC
Second: GGAGGCCA
The “PBM E-score” value of the first is higher: 0.0311 for the first, -0.189 for the second.

Compared with GCCCCATA, ACCTTCTA is higher in “PBM E-score” value: -0.11 for the first, -0.0696 for the second.

Going from AGAGGCAA to CCAACAGA, the “PBM E-score” value falls from 0.0368 to -0.199.

Going from GCTAGGAA to CCTACGCG, the “PBM E-score” value rises from -0.0561 to 0.107.

Going from AGTGCTCG to AGCGGGGA, the “PBM E-score” value falls from -0.0626 to -0.0936.

Compared with CGGGTTTA, ACACCGCT is lower in “PBM E-score” value: -0.0209 for the first, -0.0223 for the second.

Compared with CATTCTAG, ATCTCGAG is higher in “PBM E-score” value: -0.198 for the first, 0.0128 for the second.

First: GGGCTAAA
Second: CACCTACC
The “PBM E-score” value of the first is higher: 0.0452 for the first, -0.128 for the second.

First: CAGAAAAA
Second: AAGGTCCC
The “PBM E-score” value of the first is higher: 0.0393 for the first, -0.19 for the second.

First: ACGGTAAC
Second: ATCCGGGA
The “PBM E-score” value of the first is higher: 0.066 for the first, -0.00639 for the second.

First: GCTCTGAA
Second: AGTGTCCG
The “PBM E-score” value of the first is lower: -0.0267 for the first, 0.15 for the second.

Going from ATAGTCAC to AGGATATC, the “PBM E-score” value falls from 0.097 to 0.0233.

First: CGATTCAA
Second: ACGAATCT
The “PBM E-score” value of the first is lower: -0.118 for the first, 0.042 for the second.

Going from GCCACAAA to CAGACCGA, the “PBM E-score” value falls from 0.079 to -0.171.

Compared with CTTGATCA, GGGCTCAC is lower in “PBM E-score” value: 0.131 for the first, -0.176 for the second.

First: ATCACACC
Second: CATGTGGA
The “PBM E-score” value of the first is higher: 0.0325 for the first, -0.0908 for the second.

Going from CTCTACAC to ACCAGGTC, the “PBM E-score” value rises from -0.103 to -0.0921.

Going from AGACGAAC to ATTATCAG, the “PBM E-score” value falls from 0.192 to -0.0126.

Going from AGATGTAC to ATTAAATA, the “PBM E-score” value rises from -0.0616 to 0.226.

Reference: the supplement of paper PMC3334620
